The values below come from paper PMC4140772.

Sequences of proteins named here, by UniProt entry; tags and fusion partners are left off.
UniProt P53805: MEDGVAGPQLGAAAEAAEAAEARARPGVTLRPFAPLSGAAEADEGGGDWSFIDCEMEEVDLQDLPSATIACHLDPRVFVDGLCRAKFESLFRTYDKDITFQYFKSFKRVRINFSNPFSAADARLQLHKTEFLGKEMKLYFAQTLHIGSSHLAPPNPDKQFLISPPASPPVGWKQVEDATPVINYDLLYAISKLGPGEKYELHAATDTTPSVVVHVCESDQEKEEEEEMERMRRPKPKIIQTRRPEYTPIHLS
UniProt O15379: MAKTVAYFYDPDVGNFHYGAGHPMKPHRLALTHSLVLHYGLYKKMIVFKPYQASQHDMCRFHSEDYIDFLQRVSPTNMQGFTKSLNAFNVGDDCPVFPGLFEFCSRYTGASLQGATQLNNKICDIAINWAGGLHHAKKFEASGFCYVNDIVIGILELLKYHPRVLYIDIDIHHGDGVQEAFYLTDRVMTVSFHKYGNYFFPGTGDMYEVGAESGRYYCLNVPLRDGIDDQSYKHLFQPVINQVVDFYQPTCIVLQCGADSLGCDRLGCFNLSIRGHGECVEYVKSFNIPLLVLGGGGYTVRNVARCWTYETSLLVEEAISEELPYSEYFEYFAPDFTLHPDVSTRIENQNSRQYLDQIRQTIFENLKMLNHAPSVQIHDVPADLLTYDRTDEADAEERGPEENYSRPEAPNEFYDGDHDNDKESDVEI

No constants are given. Whether binding was seen depends on the method and setting. In cells and extracts the contact can be indirect. Some entries that bind do so weakly or less than the wild type.

In test [1] the target is endogenous RCAN1 (human (endogenous in HEK293)) (UniProt P53805). The test is described as follows: co-IP; untransfected HEK293 lysates immunoprecipitated with anti-RCAN1 or anti-HDAC3 antibodies or normal rabbit IgG, blotted with anti-HDAC3 and anti-RCAN1.
In test [2] the target is endogenous HDAC3 (human (endogenous in HEK293)) (UniProt O15379). The test is described as above.

Consider “endogenous HDAC3 (from UniProt O15379 1-428) (enzyme)”, for which the binding result in test [1] was “binds”.
“endogenous RCAN1 (from UniProt P53805 1-252)”: the binding result in test [2] is “binds”.
